In all, about 390,000 compounds went through this assay and about 910 (0.23%) were called active. The inconclusive results got no clear call from the source; some entries with a clear call stand among them for comparison. Calls come from the whole dose curve; as a rule, active = well fitted inhibition curve with a large enough effect; inconclusive = small, poorly fitted or top-dose-only effect; inactive = no such curve, though single readings can be large or run the other way. Potencies of inconclusive entries are doubtful fits and often do not repeat.
Each molecule was assayed against Ubiquitin carboxyl-terminal hydrolase 1 (Homo sapiens) (UniProt O94782) (assay: Inhibitors of USP1/UAF1: Primary Screen). Conditions: recombinant USP1/UAF1, Ub-Rhodamine cleavage fluorescence; activity change, negative = inhibition: at 57.1 µM (top of the series).
How it was run: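 Step one: compound is pinned into 1nM USP1/UAF1 in HEPES pH 7.8 buffer with TCEP. Step two: 15 min room-temperature incubation. Step three: Ub-Rho (150nM final) starts cleavage, tracked by fluorescence over six one-minute reads.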
% is set by controls: 0 for no effect and ±100 for the full control effect; potency is the fitted concentration of half-maximal effect.
Note: nearly all actives have a fitted effect of over 60% in size.

Chains of the proteins cited; added tags and fusions are not shown. Lines headed by an entry give the natural chain unless they say otherwise; changes in a name come on top.
UniProt O94782: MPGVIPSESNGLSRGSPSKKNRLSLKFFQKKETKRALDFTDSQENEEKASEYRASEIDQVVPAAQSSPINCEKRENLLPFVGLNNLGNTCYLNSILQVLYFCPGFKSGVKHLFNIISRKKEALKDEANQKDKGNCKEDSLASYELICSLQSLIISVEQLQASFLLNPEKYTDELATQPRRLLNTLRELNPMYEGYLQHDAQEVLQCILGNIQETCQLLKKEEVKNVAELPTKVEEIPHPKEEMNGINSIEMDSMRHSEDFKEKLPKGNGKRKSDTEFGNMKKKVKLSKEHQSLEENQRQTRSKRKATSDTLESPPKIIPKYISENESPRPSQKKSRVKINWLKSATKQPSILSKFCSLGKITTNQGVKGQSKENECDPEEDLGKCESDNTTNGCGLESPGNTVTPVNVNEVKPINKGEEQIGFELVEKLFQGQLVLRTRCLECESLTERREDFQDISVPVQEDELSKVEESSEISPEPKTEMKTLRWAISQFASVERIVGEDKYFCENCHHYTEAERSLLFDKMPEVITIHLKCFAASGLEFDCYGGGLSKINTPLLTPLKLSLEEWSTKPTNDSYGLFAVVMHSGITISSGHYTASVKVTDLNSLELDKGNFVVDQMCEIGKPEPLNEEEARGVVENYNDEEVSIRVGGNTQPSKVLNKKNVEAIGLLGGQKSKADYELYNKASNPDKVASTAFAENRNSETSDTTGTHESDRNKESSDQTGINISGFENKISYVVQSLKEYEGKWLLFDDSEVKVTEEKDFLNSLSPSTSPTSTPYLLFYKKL

| Compound | activity change, negative = inhibition | Potency |
| --- | --- | --- |
| COc1cc2c(cc1O)C[C@H]1c3c(cc(O)c(OC)c3-2)CCN1C | inactive: -19.1% | – |
| COc1ccc(C2CC(c3cccs3)=NN2c2nc(C)c(C(C)=O)s2)cc1OC (stereo not given) | – | inconclusive: 56.2 µM [inhibitor, partial curve, poor fit] |
| COc1cc(C(c2c(C)[nH]n(-c3ccccc3)c2=O)c2c(C)[nH]n(-c3ccccc3)c2=O)cc(OC)c1OC | – | inconclusive: 0.316 µM [inhibitor, full curve, poor fit] |
| COc1cc(C=C2C(=O)NC(=O)NC2=O)ccc1O | inactive: -2.89% | – |
| COC(=O)C1=C(c2ccc(OCc3ccccc3)cc2)C[C@@H]2CC[C@H]1N2C(=O)NCc1cccc(C(F)(F)F)c1 | – | inconclusive: 0.251 µM [inhibitor, full curve, poor fit] |
| Cc1noc(C)c1COc1ccc(C(=O)NCC2(N(C)C)CCCCC2)cc1 | – | inconclusive: 0.316 µM [inhibitor, full curve, poor fit] |
| Cn1cc(C=C2C(=O)NC(=O)NC2=O)c2ccccc21 | – | active: 28.2 µM |
| CC(C)N1CCN(Cc2ccccc2C(F)(F)F)CC1CCO (stereo not given) | – | inconclusive: 4.47 µM [inhibitor, partial curve, poor fit] |
| Cc1cccc(-n2c(O)c(/C=N/NC(=O)c3ccncc3)c(=O)[nH]c2=O)c1 | – | inconclusive: 50.1 µM [inhibitor, single point] |
| COc1ccc(CCNC(C)CCc2ccc(OC)cc2)cc1 (stereo not given) | – | inconclusive: 6.31 µM [inhibitor, partial curve, poor fit] |
| COc1ccc(N2C(=O)NC(=O)/C(=C\c3ccc([N+](=O)[O-])s3)C2=O)cc1 | – | active: 15.8 µM |
| CN(C)[C@@H]1C(=O)C(C(N)=O)=C(O)[C@@]2(O)C(=O)C3=C(O)c4c(O)cccc4[C@@](C)(O)C3[C@H](O)C12 (stereo not given in full) | – | inconclusive: 28.2 µM [inhibitor, partial curve] |
| CCCC[N+]12CCC(CC1)C(=C(c1ccccc1)c1ccccc1)C2 | inactive: -18.2% | – |
| COc1ccc(OC)c(NP(=O)(Oc2ccccc2)Oc2ccccc2)c1 | – | inconclusive: 44.7 µM [inhibitor, partial curve] |
| N#CC1=C(N)Oc2n[nH]c(-c3cccs3)c2C1c1ccco1 (stereo not given) | – | inconclusive: 28.2 µM [inhibitor, partial curve] |
| CCc1ccc(-n2c(O)c(/C=N/NC(=O)c3ccncc3)c(=O)[nH]c2=O)cc1 | inactive: -6.42% | – |
| COc1cccc(CNC(=O)CSc2ccc(-c3ccco3)nn2)c1 | – | inconclusive: 4.47 µM [inhibitor, partial curve] |
| COC(=O)C1=C(c2cc3ccccc3o2)C[C@@H]2CC[C@H]1N2C(=O)N1CCOCC1 | – | inconclusive: 5.01 µM [inhibitor, partial curve] |
| CCC(C)NC(=O)c1c(N)n(CC2CCCO2)c2nc3ccccc3nc12 (stereo not given) | – | inconclusive: 35.5 µM [inhibitor, partial curve, poor fit] |
| COC(=O)C1=C(c2ccc(-c3ccccc3)c(F)c2)C[C@@H]2CC[C@H]1N2C(=O)N1CCC(O)CC1 | – | inconclusive: 50.1 µM [inhibitor, partial curve, poor fit] |

Full records from above.
COc1ccc(N2C(=O)NC(=O)/C(=C\c3ccc([N+](=O)[O-])s3)C2=O)cc1 is listed as Potency: active: 15.8 µM
Cn1cc(C=C2C(=O)NC(=O)NC2=O)c2ccccc21 is listed as Potency: active: 28.2 µM
COc1ccc(OC)c(NP(=O)(Oc2ccccc2)Oc2ccccc2)c1 is listed as Potency: inconclusive: 44.7 µM [inhibitor, partial curve]
N#CC1=C(N)Oc2n[nH]c(-c3cccs3)c2C1c1ccco1 (stereo not given) is listed as Potency: inconclusive: 28.2 µM [inhibitor, partial curve]

(list continues)

| Compound | activity change, negative = inhibition | Potency |
| --- | --- | --- |
| CN(C)CCNC(=O)c1cccn(Cc2cccc(C(F)(F)F)c2)c1=O | inactive: 3.69% | – |
| C[C@@H]1CN([C@H](C)CO)C(=O)c2cc(/C=C/c3ccccc3)cnc2O[C@H]1CN(C)C(=O)NC1CCCCC1 | – | inconclusive: 31.6 µM [inhibitor, partial curve, poor fit] |
| CCCCN1C(=O)NC(=O)/C(=C/c2cnc(SC)nc2)C1=O | inactive: -5.82% | – |
| CCN(CC)c1ccc([N+](=O)[O-])c2cccnc12 | – | inconclusive: 31.6 µM [inhibitor, partial curve] |
| O=C1CN=C(c2ccccc2Cl)c2cc(Cl)ccc2N1Cc1cccc(Cl)c1 | – | inconclusive: 0.562 µM [inhibitor, full curve, poor fit] |
| Cn1c(=O)c2[nH]cnc2n(C)c1=O | – | inconclusive: 1.26 µM [inhibitor, full curve] |
| Cc1ccnc2c1NC(=O)c1cccnc1N2C1CC1 | – | inconclusive: 0.631 µM [inhibitor, full curve, poor fit] |
| CC(CNC(=O)c1ccc(CSc2nc3ccncc3n2Cc2ccc(F)cc2)cc1)c1ccccc1 (stereo not given) | – | inconclusive: 6.31 µM [inhibitor, partial curve, poor fit] |
| COc1cccc(NP(=O)(Oc2ccccc2Cl)Oc2ccccc2Cl)c1 | – | inconclusive: 39.8 µM [inhibitor, partial curve] |
| CC(C)(C)c1ccccc1O | – | inconclusive: 31.6 µM [inhibitor, single point] |
| CC(C)=CCC/C(C)=C/CNC(=O)C[C@H]1C[C@H](C(=O)N(C(C)C)C(C)C)[C@@]2(C)c3[nH]c4ccc(Cl)cc4c3CCN2C1=O | – | inconclusive: 141 µM [inhibitor, partial curve] |
| CCOc1ccc(-n2c(CC)nc3ccccc3c2=O)cc1 | – | inconclusive: 39.8 µM [inhibitor, partial curve, poor fit] |
| O=C(N=Nc1c(O)[nH]c(=O)[nH]c1=O)C1COc2ccccc2O1 (stereo not given) | – | inconclusive: 8.91 µM [inhibitor, partial curve, poor fit] |
| COC(=O)C1=C(c2ccc(F)cc2OCc2ccccc2)C[C@@H]2CC[C@H]1N2C(=O)NCc1ccc(OC)cc1 | – | inconclusive: 1.26 µM [inhibitor, full curve, poor fit] |
| COC1=C(C)C(=O)O[C@]12C(=O)C(C)=C1CCCCN3[C@H]([C@@H]4C[C@H](C)C(=O)O4)CC[C@]132 | – | inconclusive: 2.24 µM [inhibitor, full curve, poor fit] |
| NNc1n[nH]c(=S)n1N | inactive: -20.1% | – |
| C[C@H]1COC2=C1C(=O)C(=O)c1c2ccc2c1CCCC2(C)C | – | active: 31.6 µM |
| C[N+](C)(C)CC1CCCc2ccccc2C1=O (stereo not given) | inactive: -18.6% | – |
| COc1ccc(-c2nnc3n2N(C(C)=O)C(c2ccc(Cl)c(Cl)c2)=C(C(C)=O)S3)cc1 | – | inconclusive: 50.1 µM [inhibitor, partial curve, poor fit] |
| Cc1ccc(-[n+]2c(Cc3nn(-c4ccccc4)c(C)[n+]3-c3ccc(C)cc3)nn(-c3ccccc3)c2C)cc1 | – | inconclusive: 20 µM [inhibitor, partial curve] |

| Compound | activity change, negative = inhibition | Potency |
| --- | --- | --- |
| Cc1nc2cc(C(F)(F)F)ccc2n1C1CCN(Cc2nnnn2Cc2ccc3c(c2)OCO3)CC1 | inactive: -5.9% | – |
| COC(=O)C1=C(c2cc3ccccc3o2)C[C@@H]2CC[C@H]1N2C(=O)N1CCCCC1 | – | inconclusive: 39.8 µM [inhibitor, single point] |
| O=C(Nc1ccccc1)c1cccn(Cc2ccccc2)c1=O | – | inconclusive: 7.08 µM [inhibitor, single point] |
| ClCCN(CCCl)c1ccc(-n2cnc3c(Cl)ncnc32)cc1 | – | inconclusive: 0.708 µM [inhibitor, full curve, poor fit] |
| COC(=O)C1=C(c2ccc3ccccc3c2)C[C@@H]2CC[C@H]1N2C(=O)NCc1ccc(F)cc1 | – | inconclusive: 0.316 µM [inhibitor, full curve, poor fit] |
| C=CC[C@@H](C)CC(=O)C(CCCN=[N+]=[N-])SOOc1ccccc1 (stereo not given in full) | – | inconclusive: 0.251 µM [inhibitor, full curve, poor fit] |
| CCOC(=O)[C@]1(C#N)[C@@H]2C=CC(C(C)=O)=CN2[C@@H](C(N)=O)[C@@H]1c1ccsc1 | – | inconclusive: 17.8 µM [inhibitor, partial curve] |
| COc1ccc2c3c1OC1[C@H](O)CCC4[C@@H](C2)N(C)CC[C@]314 (stereo not given in full) | – | inconclusive: 15.8 µM [inhibitor, partial curve, poor fit] |
| CCN(C[C@H]1N[C@@](CC)(C(=O)OC)[C@H]2C(=O)N(Cc3ccccc3)C(=O)[C@@H]12)S(=O)(=O)c1ccc(OC)cc1 | – | inconclusive: 50.1 µM [inhibitor, partial curve, poor fit] |
| CC1=Nc2ccccc2/C1=C/c1c(O)[nH]c(=O)[nH]c1=O | – | inconclusive: 17.8 µM [inhibitor, partial curve] |
| CCOC(=O)c1ccccc1OC(=O)NNc1ccccc1 | – | inconclusive: 4.47 µM [inhibitor, partial curve] |
| O=C(Nc1ccccc1Cl)OC1CN2CCC1CC2 (stereo not given) | inactive: -9.46% | – |
| COc1ccc(-n2c(O)c(/C=C/C=Nc3ccccc3)c(=O)[nH]c2=O)cc1 | – | active: 31.6 µM |
| COC(=O)C1=C(c2cccc(OCc3ccccc3)c2)C[C@@H]2CC[C@H]1N2C(=O)NCc1ccc([N+](=O)[O-])cc1 | – | inconclusive: 7.08 µM [inhibitor, partial curve, poor fit] |
| CCOC(=O)C1(c2ccccc2)CCN(CC(=O)Nc2ccc(C)cc2)CC1 | inactive: -13.5% | – |
| O=c1[nH]c(=O)n(-c2ccccc2)c(O)c1/C=C1/C(c2ccccc2)=Nc2ccccc21 | – | inconclusive: 39.8 µM [inhibitor, partial curve, poor fit] |
| COc1ccc(CCNCc2ccc(SC)cc2)cc1 | – | inconclusive: 0.631 µM [inhibitor, full curve] |
| Cc1ncc(CO)c2c1Oc1nc(-c3ccccc3Cl)nc(SCc3ccccc3F)c1C2 | – | inconclusive: 5.01 µM [inhibitor, partial curve] |
| Cc1cccc(-n2c(CC3C(=O)Nc4ccc(C)cc43)nc3ccccc3c2=O)c1 (stereo not given) | – | inconclusive: 5.62 µM [inhibitor, partial curve, poor fit] |
| O=C1NC(=O)C(=Cc2ccc(N3CCOCC3)o2)C(=O)N1 | – | inconclusive: 15.8 µM [inhibitor, partial curve] |

From PubChem BioAssay AID743255 (National Center for Advancing Translational Sciences (NCATS), 2014)
